Record: PubChem BioAssay AID1259308 (NCATS, 2017)
Screen: 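Candidate targets for better recombinant protein yield in mammalian cells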 (primary screen). System: human HEK293 embryonic kidney cells stably expressing firefly luciferase (HEK-CMV-Luc2-Hygro). Knock-down reagent: single siRNA against human genes, 0.8 pmol siRNA per well. Duration: 72 h. Measured: 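Reporter luminescence and viable-cell signal on separate replicate plates, given as percent of non-targeting control and median/MAD z-scores, plus per-cell luciferase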. Scale: total luciferase, z-score and total luciferase, % of control: higher = more reporter protein produced; luciferase per cell, z-score: higher = more reporter output per viable cell; viable cells, % of control: higher = more viable cells. Call rule: 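Active when the median/MAD z-score for overall luciferase is greater than 3; a gene was taken forward for validation with new siRNAs if at least two of its three siRNAs passed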. Calls: active = raised luciferase; inactive = no rise.
In all, the deposit lists about 59,000 reagents; shown is a part drawn at random. Over the whole deposit, about 1,510 (2.6%) got an active call. 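Calls use total luciferase alone and ignore viability, so some active siRNAs may act by altering cell number.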 A number with no mark means an inactive call. The numbers tell different reagents against one gene apart.

gene | reagent | total luciferase, z-score | total luciferase, % of control | luciferase per cell, z-score | viable cells, % of control
EFCAB8 | 1 | 1.12 | 104 | 0.538 | 101
EFCAB8 | 2 | 0.0563 | 83 | -0.208 | 98
EFCAB8 | 3 | 1.02 | 102 | 1.61 | 74.7
MAGEH1 | 1 | -0.275 | 76.4 | -0.933 | 109
MAGEH1 | 2 | -0.454 | 72.9 | -0.66 | 96.9
MAGEH1 | 3 | 2.38 | 129 | 1.32 | 102
RPS14P9 | 1 | 0.503 | 91.9 | 0.14 | 99
RPS14P9 | 2 | -0.995 | 62.1 | -1.05 | 91.6
RPS14P9 | 3 | 1.36 | 109 | 1.65 | 78.8
TPM2 | 1 | 3.64 (active) | 154 | 3.1 | 76.1
TPM2 | 2 | -0.535 | 71.2 | 0.163 | 76.3
TPM2 | 3 | -0.649 | 69 | -0.722 | 93.2
SLC35C1 | 1 | 0.315 | 88.2 | -0.0566 | 100
SLC35C1 | 2 | -0.822 | 65.5 | -0.0665 | 74.5
SLC35C1 | 3 | -0.526 | 71.4 | -0.402 | 88.7
TMEM38B | 1 | 1.46 | 111 | 1.46 | 84.3
TMEM38B | 2 | 0.215 | 86.2 | -0.2 | 101
TMEM38B | 3 | -0.598 | 70 | -1.04 | 103

The list goes on; the last 2 above are carried over.
gene | reagent | total luciferase, z-score | total luciferase, % of control | luciferase per cell, z-score | viable cells, % of control
TMEM38B | 2 | 0.215 | 86.2 | -0.2 | 101
TMEM38B | 3 | -0.598 | 70 | -1.04 | 103
GXYLT2 | 1 | 0.505 | 91.9 | 1.17 | 75.6
GXYLT2 | 2 | 0.94 | 101 | 1.24 | 81
GXYLT2 | 3 | -0.0242 | 81.4 | -0.168 | 95.1
PSRC1 | 1 | -0.193 | 78 | -0.324 | 95
PSRC1 | 2 | -0.529 | 71.4 | -0.0739 | 81.3
PSRC1 | 3 | 1.06 | 103 | 1.02 | 88
ZNF486 | 1 | 0.71 | 96 | 0.544 | 93
ZNF486 | 2 | -2.48 | 32.5 | -2.5 | 70.1
ZNF486 | 3 | -1.5 | 52 | -0.6 | 68.1
DENND4B | 1 | -1.8 | 46.1 | -0.501 | 58.7
DENND4B | 2 | 0.866 | 99.1 | 1.24 | 79.9
DENND4B | 3 | 1.88 | 119 | 2.04 | 77.8
RELL1 | 1 | 0.288 | 87.6 | 0.586 | 83.9
RELL1 | 2 | -0.925 | 63.5 | 1.67 | 45.8
RELL1 | 3 | -0.0569 | 80.8 | -0.0778 | 92.1
API5 | 1 | 0.68 | 95.4 | -0.237 | 113
API5 | 2 | 0.833 | 98.5 | 0.814 | 88.8
API5 | 3 | 0.501 | 91.9 | -0.105 | 106
NFIA-AS1 | 1 | 0.504 | 91.9 | 1.55 | 68.3
NFIA-AS1 | 2 | 4.06 (active) | 163 | 4.07 | 62.3
NFIA-AS1 | 3 | 0.329 | 88.4 | 0.848 | 79.1
